Four compounds from patent US8409814B2, “Sensor proteins and assay methods” (Life Technologies Corporation, priority 2006, dated 2013) can be followed below.

The test system of this data set is recombinant bovine alkaline phosphatase. Put plainly: Cleavage by alkaline phosphatase detected with coumarin-PBP fluorescence. The class given is biochemical. The conditions noted are these: for cleavage by alkaline phosphatase within 5 minutes: 10 milli-units/mL alkaline phosphatase, 100 μM compound; for change in fluorescence intensity after alkaline phosphatase (cleavage): 8 units per 20 uL well alkaline phosphatase, wells with >1 uM compound; for cleavage by alkaline phosphatase within 5 minutes / change in fluorescence intensity after alkaline phosphatase (cleavage): 5 minutes; for alkaline phosphatase activity on compound after one hour: up to about 1 unit/mL alkaline phosphatase.

For the compound `Nc1ncnc2c1ncn2[C@@H]1O[C@H](COP(=O)(O)OP(=O)(O)OP(=O)(O)O)[C@@H](O)[C@H]1O` [ATP], the “cleavage by alkaline phosphatase within 5 minutes” value is given as “cleaved”.

Turning to `Nc1ncnc2c1ncn2[C@@H]1O[C@@H]2COP(=O)(O)O[C@H]2[C@H]1O` [cAMP, cyclic AMP], the “change in fluorescence intensity after alkaline phosphatase (cleavage)” value (“change in fluorescence intensity” for short) is listed as “some increase in fluorescent intensity”, the “cleavage by alkaline phosphatase within 5 minutes” value is recorded as “did not cleave” and the “alkaline phosphatase activity on compound after one hour” value is recorded as “no detectible activity”.

Take `O=[N+]([O-])c1ccc(OP(=O)(O)O)cc1` [PNP, p-nitrophenyl phosphate]: the “change in fluorescence intensity” value is on record as “decrease in intensity at higher phosphatase concentrations”.

With `Nc1nc2c(ncn2[C@@H]2O[C@@H]3COP(=O)(O)O[C@H]3[C@H]2O)c(=O)[nH]1` [cGMP, cyclic GMP], the “change in fluorescence intensity” value was “some increase in fluorescent intensity”, the “cleavage by alkaline phosphatase within 5 minutes” value was “did not cleave” and the “alkaline phosphatase activity on compound after one hour” value was “no detectible activity”.
